{"source": "PubChem BioAssay AID493014", "about": "(National Center for Advancing Translational Sciences (NCATS), 2011)", "assay": "qHTS Assay to Find Inhibitors of Chronic Active B-Cell Receptor Signaling; further: potency means the concentration at half of the fitted maximal effect;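 on activity change, negative = inhibition: plate controls were basal doxycycline-induced cells for no effect and cells given 10 µM MG132 for full effect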", "details": "ABC-DLBCL IkBa-CBG/CBR reporter, luminescence ratio (green luciferase fused to IkBa over red control in TMD8 lymphoma cells), 4 h", "method_in_brief": "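Cell line TMD8 (human ABC DLBCL), stably expressing tet-inducible CBG68-IkBa fusion and CBR; IMDM/0.5% FBS; cpd up to 46 uM; dox induction, 4 h, 37C/5% CO2; dual luminescence; green/red ratio; MG132 control.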", "key": {"[1]": {"details": "activity change, negative = inhibition: at 46.1 µM (top of the series) unless noted"}}, "note": "Out of some 340,000 compounds screened, about 170 (0.05%) were called active. Inconclusive means that the source gave no clear call. Such entries were picked first, then a sample of the others. The call rests on the fitted dose curve; in most records, active means well fitted inhibition curve with a large enough effect in the signal ratio, with a control signal flat (not every such curve was filed as active); inconclusive means small, poorly fitted or top-dose-only effect, or effect the other way, or a change in a side signal; inactive means flat fitted curve, though single readings scatter; the % refers to the signal ratio. Potencies of inconclusive entries are doubtful fits and often do not repeat."}
{"molecule": "CC(C)CCN(C(=O)Nc1ccccc1)C(C)c1cccs1", "note": "(stereo not drawn)", "values": [{"measurement": "activity change, negative = inhibition", "setting": "[1]", "result": "inconclusive: 13.4%"}, {"measurement": "activity change, negative = inhibition", "setting": "at 46.1 µM (top of the series)", "result": "inactive: 11.2%"}]}
{"molecule": "Cc1cccc(OCCCc2c(C)n[nH]c2C)c1", "values": [{"measurement": "activity change, negative = inhibition", "setting": "[1]", "result": "inconclusive: -2.16%"}]}
{"molecule": "O=C(CCC(=O)N(CC(=O)NC1CCCC1)Cc1ccc(F)cc1)Nc1nccs1", "values": [{"measurement": "Potency", "setting": "[1]", "result": "inconclusive: 35.5 µM [falling, single point]"}]}
{"molecule": "Cc1ccc(/C(=N/Nc2nc3ccccc3s2)C2=C(O)c3ccccc3C2=O)cc1", "values": [{"measurement": "activity change, negative = inhibition", "setting": "[1]", "result": "inactive"}]}
{"molecule": "[O-][n+]1ccccc1SC/C=C/c1ccccc1", "values": [{"measurement": "activity change, negative = inhibition", "setting": "[1]", "result": "inconclusive: 2.87%"}]}
{"molecule": "NC(=S)N/N=C/c1cn(-c2ccccc2)nc1-c1cccnc1", "values": [{"measurement": "activity change, negative = inhibition", "setting": "[1]", "result": "inconclusive: -21.9%"}]}
{"molecule": "CCOC(=O)C1CCN(C(=O)/C=C/c2cccs2)CC1", "values": [{"measurement": "activity change, negative = inhibition", "setting": "[1]", "result": "inconclusive: -10.9%"}]}
{"molecule": "O=C(Nn1c(C2CCCCC2)nc2ccccc2c1=O)c1ccc([N+](=O)[O-])cc1", "values": [{"measurement": "activity change, negative = inhibition", "setting": "[1]", "result": "inconclusive: 0.659%"}]}
{"molecule": "Cc1ccccc1CSc1ccc(-c2ccc3c(c2)OCO3)nn1", "values": [{"measurement": "activity change, negative = inhibition", "setting": "[1]", "result": "inactive"}]}
{"molecule": "CCn1c2ccccc2c2cc(/C=N/NC(=O)c3ccccc3C)ccc21", "values": [{"measurement": "Potency", "setting": "[1]", "result": "inconclusive: 20.6 µM [falling, partial curve]"}]}
{"molecule": "O=C(CCCN1C(=O)S/C(=C\\c2ccccc2)C1=O)NNC(=O)c1ccccc1O", "values": [{"measurement": "Potency", "setting": "[1]", "result": "inconclusive: 3.98 µM [falling, partial curve, poor fit]"}]}
{"molecule": "Cc1cccc(N=Nc2c(C)[nH]n(C(N)=S)c2=O)c1C", "values": [{"measurement": "activity change, negative = inhibition", "setting": "[1]", "result": "inconclusive: 5.37%"}]}
{"molecule": "COc1cc(/C=N/Nc2ccc(C(=O)O)cc2)cc(OC)c1OC", "values": [{"measurement": "activity change, negative = inhibition", "setting": "[1]", "result": "inconclusive: 218%"}]}
{"molecule": "Cc1cccc(Cc2cnc(N3C(=N)SC(C)C3=O)s2)c1", "note": "(stereo not drawn)", "values": [{"measurement": "activity change, negative = inhibition", "setting": "[1]", "result": "inconclusive: -10.5%"}]}
{"molecule": "CCOC(=O)c1ccc2c(c1)C1C=CCC1C(C(=O)O)N2", "note": "(stereo not drawn)", "values": [{"measurement": "activity change, negative = inhibition", "setting": "[1]", "result": "inactive"}]}
{"molecule": "O=C(N/N=C/c1ccc2cccnc2c1)c1nc2ccccc2c(=O)[nH]1", "values": [{"measurement": "activity change, negative = inhibition", "setting": "[1]", "result": "inconclusive: -19.1%"}]}
{"molecule": "C=CCOc1c(OC)cc(/C=N/Nc2cccc(C(=O)O)c2)c(Br)c1Br", "values": [{"measurement": "activity change, negative = inhibition", "setting": "[1]", "result": "inconclusive: -3.17%"}]}
{"molecule": "Cc1csc(CNc2ncnc3ccc(-c4cccnc4)cc23)c1", "values": [{"measurement": "Potency", "setting": "[1]", "result": "inconclusive: 29.1 µM [falling, single point]"}, {"measurement": "activity change, negative = inhibition", "setting": "[1]", "result": "inconclusive: -6.31%"}]}
{"molecule": "O=C(CSc1nnc(CNC(=O)c2ccco2)o1)Nc1cccc(F)c1", "values": [{"measurement": "activity change, negative = inhibition", "setting": "[1]", "result": "inactive"}]}
{"molecule": "CCCc1cc(=O)[nH]c(SCC(=O)N(C)CC(=O)Nc2ccc(C)cc2)n1", "values": [{"measurement": "activity change, negative = inhibition", "setting": "[1]", "result": "inconclusive: 4.08%"}]}
{"molecule": "COCCn1cc(C(=O)NCCCOC(C)C)c2c3ccccc3n(C)c2c1=O", "values": [{"measurement": "activity change, negative = inhibition", "setting": "[1]", "result": "inconclusive: 5.13%"}]}
{"molecule": "Cc1ccccc1C(=O)NC(=S)Nc1ccccc1C(F)(F)F", "values": [{"measurement": "activity change, negative = inhibition", "setting": "[1]", "result": "inconclusive: -0.41%"}]}
{"molecule": "OC1(c2ccccc2)Cc2cccc[n+]2C1c1ccccc1", "note": "(stereo not drawn)", "values": [{"measurement": "activity change, negative = inhibition", "setting": "[1]", "result": "inconclusive: 2.02%"}]}
{"molecule": "Cc1cccc(OCCCC(=O)Nc2ccc(Br)cc2)c1", "values": [{"measurement": "activity change, negative = inhibition", "setting": "[1]", "result": "inactive"}]}
{"molecule": "O=c1[nH]c(C2CCCN(S(=O)(=O)c3ccc(F)cc3)C2)nc2c1nnn2Cc1ccc(F)cc1", "note": "(stereo not drawn)", "values": [{"measurement": "activity change, negative = inhibition", "setting": "[1]", "result": "inconclusive: 0.314%"}]}
{"molecule": "COc1ccc(-c2cc3nc(C)cc(N)n3n2)cc1", "values": [{"measurement": "activity change, negative = inhibition", "setting": "[1]", "result": "inconclusive: 330%"}]}
{"molecule": "Cc1nc(SCC(=O)Nc2ccc(F)cc2)c2oc3ccccc3c2n1", "values": [{"measurement": "Potency", "setting": "[1]", "result": "inconclusive: 29.1 µM [falling, single point]"}]}
{"molecule": "Nc1cc([N+](=O)[O-])cc2oc(-c3ccccc3)cc12", "values": [{"measurement": "activity change, negative = inhibition", "setting": "[1]", "result": "inconclusive: 10.1%"}]}
{"molecule": "COc1cc(CNc2ncnc3c2[nH]c2ccc(C)cc23)cc(OC)c1", "values": [{"measurement": "activity change, negative = inhibition", "setting": "[1]", "result": "inconclusive: -11.2%"}]}
{"molecule": "O=C1C=C(N2CCOCC2)C2(CCCCC2)O1", "values": [{"measurement": "Potency", "setting": "[1]", "result": "inconclusive: 8.91 µM [falling, partial curve]"}]}
{"molecule": "O=C(c1cc(-c2ccco2)nc2ccccc12)N1CCN(c2ccc(F)cc2)CC1", "values": [{"measurement": "activity change, negative = inhibition", "setting": "[1]", "result": "inactive"}]}
{"molecule": "Nc1[nH][nH]c(=O)c1N=Nc1cccc(Cl)c1", "values": [{"measurement": "Potency", "setting": "[1]", "result": "inconclusive: 31.6 µM [falling, single point]"}]}
{"molecule": "Cc1ccc(Cl)c(NC(=O)COC(=O)c2ccccc2C(=O)c2ccc(Cl)c([N+](=O)[O-])c2)c1Cl", "values": [{"measurement": "Potency", "setting": "[1]", "result": "inconclusive: 29.1 µM [falling, single point]"}]}
{"molecule": "Cc1cc(Cl)n2c(nc3cc(F)c(F)cc32)c1C#N", "values": [{"measurement": "Potency", "setting": "[1]", "result": "inconclusive: 20 µM [cytotoxic, partial curve]"}]}
{"molecule": "Cc1ccc2c(C)c(C(=O)Nc3ccc(S(=O)(=O)Nc4onc(C)c4C)cc3)oc2c1", "values": [{"measurement": "activity change, negative = inhibition", "setting": "[1]", "result": "inconclusive: 7.3%"}]}
{"molecule": "O=C(CNC(=O)c1cccc(F)c1)OCC(=O)N1CCN(C(=O)c2ccco2)CC1", "values": [{"measurement": "activity change, negative = inhibition", "setting": "[1]", "result": "inconclusive: 6.02%"}]}
{"molecule": "NS(=O)(=O)c1ccc(NC(=O)COc2cccc3ccccc23)cc1", "values": [{"measurement": "activity change, negative = inhibition", "setting": "[1]", "result": "inconclusive: -16.1%"}]}
{"molecule": "CCN(CC)c1ccc(/C=C2/C(=O)c3ccc(C(=O)O)cc3C2=O)cc1", "values": [{"measurement": "Potency", "setting": "[1]", "result": "inconclusive: 20.6 µM [falling, partial curve]"}]}
{"molecule": "COc1ccc(C2(CNC(=O)c3ccc(N)cc3)CCCC2)cc1", "values": [{"measurement": "activity change, negative = inhibition", "setting": "[1]", "result": "inconclusive: -9.57%"}]}
{"molecule": "O=C(Nc1nccs1)C1CCCN(S(=O)(=O)c2cccc3cccnc23)C1", "note": "(stereo not drawn)", "values": [{"measurement": "Potency", "setting": "[1]", "result": "inconclusive: 16.4 µM [rising, partial curve, poor fit]"}]}
{"molecule": "COc1ccc(Nc2nc3ccccc3c(=O)[nH]2)cc1", "values": [{"measurement": "activity change, negative = inhibition", "setting": "[1]", "result": "inconclusive: 9.64%"}]}
{"molecule": "C/C(CC(=O)Nc1ccccn1)=N\\NC(=O)c1ccncc1", "values": [{"measurement": "activity change, negative = inhibition", "setting": "[1]", "result": "inactive"}]}
{"molecule": "O=C(O)c1ccc(/C=N/Nc2cccc(C(F)(F)F)c2)cc1", "values": [{"measurement": "activity change, negative = inhibition", "setting": "[1]", "result": "inconclusive: 330%"}]}
{"molecule": "CN1CCN(NC(=O)Nc2ccc(Br)cc2Cl)CC1", "values": [{"measurement": "activity change, negative = inhibition", "setting": "[1]", "result": "inconclusive: 2.63%"}]}
{"molecule": "CCOc1ccc(-c2nnc(-c3ccc(OC)cc3)o2)cc1", "values": [{"measurement": "activity change, negative = inhibition", "setting": "[1]", "result": "inactive"}]}
{"molecule": "O=C(CC(c1ccccc1)c1ccccc1)Nc1ccc(C(=O)O)cc1", "values": [{"measurement": "activity change, negative = inhibition", "setting": "[1]", "result": "inconclusive: -3.98%"}]}
{"molecule": "Cc1ccc(NC(=O)c2nc(S(=O)(=O)Cc3ccccc3C)ncc2Cl)cc1C", "values": [{"measurement": "Potency", "setting": "[1]", "result": "inconclusive: 10 µM [rising, partial curve, poor fit]"}]}
{"molecule": "CC(=O)c1ccccc1NC(=O)COC(=O)c1ccc2c(c1)nc(C)n2-c1ccccc1", "values": [{"measurement": "activity change, negative = inhibition", "setting": "[1]", "result": "inconclusive: 2.96%"}]}
{"molecule": "COc1ccccc1NC(=O)CSC1=Nc2ccccc2C2=NC(CC(=O)NCc3ccccc3)C(=O)N12", "note": "(stereo not drawn)", "values": [{"measurement": "activity change, negative = inhibition", "setting": "[1]", "result": "inconclusive: -12.9%"}]}
{"molecule": "O=C(O)CC1S/C(=N\\N=C2\\C(=O)Nc3ccccc32)N(c2ccc(O)cc2)C1=O", "note": "(stereo not drawn)", "values": [{"measurement": "Potency", "setting": "[1]", "result": "inconclusive: 4.47 µM [falling, full curve]"}]}
{"molecule": "Cc1cc(=O)n2[nH]c(SCc3ccc(Cl)cc3)nc2n1", "values": [{"measurement": "activity change, negative = inhibition", "setting": "[1]", "result": "inconclusive: 309%"}]}
